Data source: PubChem BioAssay AID743454 (Peter MacCallum Cancer Centre, 2014)

Aim: 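Search for knock-downs that restore vorinostat killing in resistant colon cancer cells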 (primary screen)
Cells: human HCT116-VR colon cancer cells, selected for vorinostat resistance
Reagent: siRNA pool against human genes, 40 nM siRNA pool
Duration: vorinostat for 24 h, read-out about 72 h after transfection
Conditions: vorinostat at 2.5 µM final
Read-out: 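Cell viability by CellTiter-Fluor and caspase 3/7 activity by luminescence, each scaled to mock wells per plate, duplicates averaged, then robust z-scored over all plates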
Reading the numbers: viability robust z-score: higher = more viable cells than screen typical; caspase robust z-score: higher = more caspase 3/7 activity than screen typical
Call rule: 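a knock-down is a hit when classed RV1 or RV2 for lowered viability, or CA1 or CA2 for caspase activation; those lethal without drug were dropped; hits were retested singly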
This is an unselected part of about 18,000 reagents. 450 of them (2.5%) count as active. 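Single biological run; no consistent viability z cut-off exists, so the class columns, not z-scores, define the calls.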 Entries without a mark were called inactive.

AQP11 gave viability hit class no change; caspase hit class no change; viability robust z-score 0.02; caspase robust z-score 0.12.
TNS4 scored viability hit class no change; caspase hit class no change; viability robust z-score 0.45; caspase robust z-score 0.09.
ZDHHC16 gave viability hit class no change; caspase hit class no change; viability robust z-score -0.45; caspase robust z-score 3.26.
ZNF611 showed viability hit class no change; caspase hit class no change; viability robust z-score -0.16; caspase robust z-score 0.86.
WWC3 showed viability hit class no change; caspase hit class no change; viability robust z-score 1.42; caspase robust z-score -0.7.
Knock-down of OR4P4 gave: viability hit class no change; caspase hit class no change; viability robust z-score 1.09; caspase robust z-score -1.17.
DBN1 gave viability hit class no change; caspase hit class no change; viability robust z-score 0.85; caspase robust z-score -0.8.
After knock-down of MAGEA6 the results were viability hit class no change; caspase hit class no change; viability robust z-score 1.22; caspase robust z-score -0.15.

In a second layout: 2 of the entries above
gene symbol,viability hit class,caspase hit class,viability robust z-score,caspase robust z-score
ZDHHC16,no change,no change,-0.45,3.26
ZNF611,no change,no change,-0.16,0.86

More results follow.
Silencing of CFAP52 gave: viability hit class no change; caspase hit class no change; viability robust z-score -0.42; caspase robust z-score 1.58.
With knock-down of ADGRG1, the screen gave viability hit class no change; caspase hit class no change; viability robust z-score -0.08; caspase robust z-score -0.26.
For ERI3, the entry reads viability hit class no change; caspase hit class no change; viability robust z-score 0.99; caspase robust z-score -0.29.
NEK8 scored viability hit class no change; caspase hit class no change; viability robust z-score -0.86; caspase robust z-score -0.57.
